Source: patent US7642274B2, “Inhibitor of pain threshold decrease” (Santen Pharmaceutical Co., Ltd., priority 2003, dated 2010)
The name of at least one read-out is uncertain.

Test system: repetitive cold stress rat models
Test: Test for inhibition of pain threshold decrease by repetitive cold stress (continuous administration), Randall-Selitto method
Assay type: in vivo
Conditions: day 8 after applying the repetitive cold stress; comparative compound, dose and route not given; once a day; with stress

`O=C(O)Cc1ccccc1Nc1c(Cl)cccc1Cl` [Compound L, Diclofenac, reference compound] was tested, and the “Rate of inhibition of pain threshold decrease (%)” value was 2.0%.
